Data on 2 molecules can be found in article doi:10.1101/2025.10.27.684941.

These are yes or no findings as the source states them, for the method shown. In cells and extracts the contact can be indirect. Some results given as binding are weak or reduced against the parent protein; the word gives no strength.

Assay [1] addresses endogenous ZO-1 (Zonula occludens protein 1) (human (endogenous in HeLa)) (UniProt Q07157). Kind of assay: co-IP.
Assay [2] has as its target T1, endogenous ZO-1 (Zonula occludens protein 1) (human (endogenous in HeLa)), Q07157.
T1 chain: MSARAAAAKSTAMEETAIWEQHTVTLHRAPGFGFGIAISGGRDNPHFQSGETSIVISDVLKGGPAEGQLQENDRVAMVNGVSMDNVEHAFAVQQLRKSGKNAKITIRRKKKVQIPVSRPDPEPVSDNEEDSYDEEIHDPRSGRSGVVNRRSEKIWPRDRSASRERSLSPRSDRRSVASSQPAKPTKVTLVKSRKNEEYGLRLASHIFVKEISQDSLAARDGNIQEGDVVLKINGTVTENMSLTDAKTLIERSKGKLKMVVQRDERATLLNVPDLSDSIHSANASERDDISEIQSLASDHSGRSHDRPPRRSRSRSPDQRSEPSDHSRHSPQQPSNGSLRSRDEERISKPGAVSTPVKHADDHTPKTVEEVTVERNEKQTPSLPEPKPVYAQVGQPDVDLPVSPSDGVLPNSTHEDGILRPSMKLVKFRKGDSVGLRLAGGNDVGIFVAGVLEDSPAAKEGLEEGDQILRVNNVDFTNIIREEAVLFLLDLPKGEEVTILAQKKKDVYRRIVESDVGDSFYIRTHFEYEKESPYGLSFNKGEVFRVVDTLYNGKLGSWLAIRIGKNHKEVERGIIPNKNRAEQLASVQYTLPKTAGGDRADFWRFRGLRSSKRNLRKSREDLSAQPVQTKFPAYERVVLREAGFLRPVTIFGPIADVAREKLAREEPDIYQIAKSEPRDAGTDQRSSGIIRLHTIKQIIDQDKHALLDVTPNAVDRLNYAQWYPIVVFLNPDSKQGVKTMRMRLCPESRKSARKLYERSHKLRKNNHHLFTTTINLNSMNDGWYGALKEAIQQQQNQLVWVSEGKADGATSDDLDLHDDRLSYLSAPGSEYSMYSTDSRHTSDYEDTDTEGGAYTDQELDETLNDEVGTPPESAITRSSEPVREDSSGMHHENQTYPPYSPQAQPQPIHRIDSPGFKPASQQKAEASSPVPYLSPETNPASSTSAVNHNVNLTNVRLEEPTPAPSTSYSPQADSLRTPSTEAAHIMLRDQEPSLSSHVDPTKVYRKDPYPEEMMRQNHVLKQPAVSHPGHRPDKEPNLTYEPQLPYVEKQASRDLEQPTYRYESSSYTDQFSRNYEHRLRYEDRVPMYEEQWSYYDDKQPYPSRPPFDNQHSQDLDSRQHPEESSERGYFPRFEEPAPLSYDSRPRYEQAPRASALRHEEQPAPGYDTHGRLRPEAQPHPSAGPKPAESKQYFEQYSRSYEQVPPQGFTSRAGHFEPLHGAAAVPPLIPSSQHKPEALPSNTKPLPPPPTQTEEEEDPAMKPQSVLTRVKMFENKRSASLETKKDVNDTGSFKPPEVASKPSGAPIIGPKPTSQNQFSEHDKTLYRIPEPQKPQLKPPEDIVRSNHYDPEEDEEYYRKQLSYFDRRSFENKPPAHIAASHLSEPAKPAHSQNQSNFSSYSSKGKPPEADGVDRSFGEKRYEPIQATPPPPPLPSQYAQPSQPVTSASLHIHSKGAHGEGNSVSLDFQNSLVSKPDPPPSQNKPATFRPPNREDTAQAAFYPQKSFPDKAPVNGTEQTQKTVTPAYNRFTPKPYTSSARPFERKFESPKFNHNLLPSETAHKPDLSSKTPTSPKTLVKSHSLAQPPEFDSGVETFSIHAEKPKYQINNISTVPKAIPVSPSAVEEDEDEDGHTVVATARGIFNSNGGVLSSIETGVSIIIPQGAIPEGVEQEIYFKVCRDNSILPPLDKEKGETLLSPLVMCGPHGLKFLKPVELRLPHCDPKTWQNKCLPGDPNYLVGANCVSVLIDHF
Kind of assay: co-IP. The conditions noted are these: remark: other sources report otherwise.

As for “Cx36 A319T, in HeLa cells (from UniProt O54851 1-321)”, the binding entry in assay [1] is “binds”.

B1: Connexin 36 (wild type), in HeLa cells, O54851 1-321 (protein)
chain: MGEWTILERLLEAAVQQHSTMIGRILLTVVVIFRILIVAIVGETVYDDEQTMFVCNTLQPGCNQACYDRAFPISHIRYWVFQIIMVCTPSLCFITYSVHQSAKQRERRYSTVFLALDRDPAESIGGPGGTGGGGSGGSKREDKKLQNAIVNGVLQNTETTSKETEPDCLEVKELTPHPSGLRTAARSKLRRQEGISRFYIIQVVFRNALEIGFLVGQYFLYGFSVPGLYECNRYPCIKEVECYVSRPTEKTVFLVFMFAVSGICVVLNLAELNHLGWRKIKLAVRGAQAKRKSVYEIRNKDLPRVSVPNFGRTQSSDSAYV
Regarding B1, the binding result in assay [2] is reported as “no binding”.
